Results from the supplement of paper PMC10849652.
The list shows a part of the results.

By UniProt entry, the sequences of proteins in these tests, tags left out. Where a name states a change or a piece, a line headed by the entry shows the natural chain unless it says otherwise.
UniProt Q9UI95, whole entry, looked up: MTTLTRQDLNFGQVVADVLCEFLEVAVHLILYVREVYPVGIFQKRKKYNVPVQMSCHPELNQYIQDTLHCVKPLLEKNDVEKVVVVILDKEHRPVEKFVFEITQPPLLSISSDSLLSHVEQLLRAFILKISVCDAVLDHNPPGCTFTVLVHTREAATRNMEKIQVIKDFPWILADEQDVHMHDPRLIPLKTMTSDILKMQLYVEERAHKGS
UniProt Q9NZL9, whole entry, looked up: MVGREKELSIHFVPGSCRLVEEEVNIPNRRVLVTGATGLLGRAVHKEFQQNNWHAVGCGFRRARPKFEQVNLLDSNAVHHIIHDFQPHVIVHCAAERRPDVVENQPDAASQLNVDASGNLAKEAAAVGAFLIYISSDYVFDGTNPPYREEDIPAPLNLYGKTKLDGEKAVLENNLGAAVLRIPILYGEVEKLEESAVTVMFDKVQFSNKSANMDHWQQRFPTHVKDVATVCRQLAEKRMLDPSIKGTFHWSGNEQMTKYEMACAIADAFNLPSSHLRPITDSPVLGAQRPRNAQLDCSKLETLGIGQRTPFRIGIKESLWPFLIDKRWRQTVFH
UniProt Q9P0L2: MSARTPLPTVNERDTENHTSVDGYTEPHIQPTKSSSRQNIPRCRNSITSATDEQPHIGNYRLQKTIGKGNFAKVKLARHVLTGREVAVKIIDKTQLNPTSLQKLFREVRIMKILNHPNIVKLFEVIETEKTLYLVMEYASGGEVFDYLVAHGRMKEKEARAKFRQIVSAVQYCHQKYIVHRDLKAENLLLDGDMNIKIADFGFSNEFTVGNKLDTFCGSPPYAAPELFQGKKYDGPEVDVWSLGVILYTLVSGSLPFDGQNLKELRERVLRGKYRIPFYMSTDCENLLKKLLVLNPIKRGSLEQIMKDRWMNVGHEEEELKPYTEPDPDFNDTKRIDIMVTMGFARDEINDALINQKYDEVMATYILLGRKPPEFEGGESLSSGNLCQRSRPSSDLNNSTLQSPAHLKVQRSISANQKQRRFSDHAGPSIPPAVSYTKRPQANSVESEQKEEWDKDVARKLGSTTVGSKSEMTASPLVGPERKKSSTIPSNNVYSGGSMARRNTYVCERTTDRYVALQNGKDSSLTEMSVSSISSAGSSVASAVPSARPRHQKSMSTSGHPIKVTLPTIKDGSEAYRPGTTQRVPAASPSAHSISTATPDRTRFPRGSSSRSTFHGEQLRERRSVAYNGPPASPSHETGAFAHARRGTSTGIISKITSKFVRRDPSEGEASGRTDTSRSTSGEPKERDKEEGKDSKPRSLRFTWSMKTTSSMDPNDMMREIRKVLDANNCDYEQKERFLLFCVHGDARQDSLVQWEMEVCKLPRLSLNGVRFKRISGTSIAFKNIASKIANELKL
UniProt P02788: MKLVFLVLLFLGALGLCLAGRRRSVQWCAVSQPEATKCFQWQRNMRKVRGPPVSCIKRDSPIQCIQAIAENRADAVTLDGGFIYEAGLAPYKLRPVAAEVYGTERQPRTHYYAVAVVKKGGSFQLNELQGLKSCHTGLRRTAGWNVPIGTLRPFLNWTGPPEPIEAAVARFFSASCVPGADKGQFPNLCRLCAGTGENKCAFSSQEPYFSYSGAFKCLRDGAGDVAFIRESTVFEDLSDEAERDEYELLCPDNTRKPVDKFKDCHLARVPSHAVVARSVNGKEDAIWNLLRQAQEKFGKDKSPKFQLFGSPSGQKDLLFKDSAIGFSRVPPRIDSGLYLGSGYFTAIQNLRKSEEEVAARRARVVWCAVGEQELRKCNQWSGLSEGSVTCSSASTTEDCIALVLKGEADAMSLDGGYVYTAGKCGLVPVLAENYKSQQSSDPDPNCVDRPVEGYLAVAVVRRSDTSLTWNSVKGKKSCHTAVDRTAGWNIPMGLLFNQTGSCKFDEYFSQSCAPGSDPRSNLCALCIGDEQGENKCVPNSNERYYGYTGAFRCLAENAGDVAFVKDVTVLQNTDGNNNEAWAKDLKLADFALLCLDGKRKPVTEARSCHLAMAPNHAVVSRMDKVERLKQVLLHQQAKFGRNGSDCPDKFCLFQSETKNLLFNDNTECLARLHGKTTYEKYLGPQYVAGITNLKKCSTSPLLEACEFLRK
UniProt O15525: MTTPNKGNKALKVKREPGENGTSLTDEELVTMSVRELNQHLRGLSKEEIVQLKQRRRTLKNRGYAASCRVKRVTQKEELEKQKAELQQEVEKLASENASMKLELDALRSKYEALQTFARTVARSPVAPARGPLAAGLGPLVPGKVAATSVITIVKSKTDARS
UniProt P49641: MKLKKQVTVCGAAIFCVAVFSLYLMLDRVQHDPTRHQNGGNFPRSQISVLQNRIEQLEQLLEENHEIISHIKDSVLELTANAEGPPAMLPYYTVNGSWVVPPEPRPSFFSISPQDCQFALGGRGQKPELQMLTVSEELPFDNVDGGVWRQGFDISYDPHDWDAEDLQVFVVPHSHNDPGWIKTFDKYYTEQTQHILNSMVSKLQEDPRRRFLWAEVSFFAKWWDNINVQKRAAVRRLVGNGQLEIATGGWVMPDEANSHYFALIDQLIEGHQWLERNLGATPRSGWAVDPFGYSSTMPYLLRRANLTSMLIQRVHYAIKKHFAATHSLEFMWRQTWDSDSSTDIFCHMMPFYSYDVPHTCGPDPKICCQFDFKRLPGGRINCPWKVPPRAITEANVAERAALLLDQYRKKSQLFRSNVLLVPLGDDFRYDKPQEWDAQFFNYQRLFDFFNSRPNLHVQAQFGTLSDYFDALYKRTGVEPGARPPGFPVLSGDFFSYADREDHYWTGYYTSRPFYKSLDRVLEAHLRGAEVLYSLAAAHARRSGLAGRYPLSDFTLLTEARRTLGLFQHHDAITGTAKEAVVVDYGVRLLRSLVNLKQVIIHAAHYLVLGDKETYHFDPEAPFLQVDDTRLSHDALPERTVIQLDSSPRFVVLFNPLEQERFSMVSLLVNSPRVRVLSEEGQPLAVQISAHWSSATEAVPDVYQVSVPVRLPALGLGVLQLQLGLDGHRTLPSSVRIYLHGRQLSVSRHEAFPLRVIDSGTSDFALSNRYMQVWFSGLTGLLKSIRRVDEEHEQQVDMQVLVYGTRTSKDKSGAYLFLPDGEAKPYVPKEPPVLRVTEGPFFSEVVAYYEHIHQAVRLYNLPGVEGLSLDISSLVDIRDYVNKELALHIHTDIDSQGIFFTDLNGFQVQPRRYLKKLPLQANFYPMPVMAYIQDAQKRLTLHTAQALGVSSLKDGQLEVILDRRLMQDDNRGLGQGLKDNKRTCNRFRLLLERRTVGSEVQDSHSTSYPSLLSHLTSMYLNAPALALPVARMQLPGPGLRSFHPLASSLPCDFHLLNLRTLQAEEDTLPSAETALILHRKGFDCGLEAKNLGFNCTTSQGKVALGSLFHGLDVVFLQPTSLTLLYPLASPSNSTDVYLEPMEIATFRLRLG
UniProt O43318: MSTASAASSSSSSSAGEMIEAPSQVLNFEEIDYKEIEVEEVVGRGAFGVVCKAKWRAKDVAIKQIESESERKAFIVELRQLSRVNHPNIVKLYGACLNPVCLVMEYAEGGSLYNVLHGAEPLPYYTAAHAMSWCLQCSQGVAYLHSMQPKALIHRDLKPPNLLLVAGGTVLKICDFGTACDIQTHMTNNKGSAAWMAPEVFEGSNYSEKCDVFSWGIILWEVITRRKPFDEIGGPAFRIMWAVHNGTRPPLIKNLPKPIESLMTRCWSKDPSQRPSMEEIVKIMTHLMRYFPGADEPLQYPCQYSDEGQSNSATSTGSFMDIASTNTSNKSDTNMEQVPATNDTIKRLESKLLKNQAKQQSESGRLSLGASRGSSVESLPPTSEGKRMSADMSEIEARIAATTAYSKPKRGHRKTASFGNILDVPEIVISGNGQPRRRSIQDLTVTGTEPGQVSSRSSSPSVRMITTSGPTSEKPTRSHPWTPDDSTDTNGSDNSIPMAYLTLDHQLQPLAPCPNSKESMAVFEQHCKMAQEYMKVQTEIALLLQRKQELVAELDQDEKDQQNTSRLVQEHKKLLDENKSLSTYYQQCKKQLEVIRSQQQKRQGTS
UniProt P45983: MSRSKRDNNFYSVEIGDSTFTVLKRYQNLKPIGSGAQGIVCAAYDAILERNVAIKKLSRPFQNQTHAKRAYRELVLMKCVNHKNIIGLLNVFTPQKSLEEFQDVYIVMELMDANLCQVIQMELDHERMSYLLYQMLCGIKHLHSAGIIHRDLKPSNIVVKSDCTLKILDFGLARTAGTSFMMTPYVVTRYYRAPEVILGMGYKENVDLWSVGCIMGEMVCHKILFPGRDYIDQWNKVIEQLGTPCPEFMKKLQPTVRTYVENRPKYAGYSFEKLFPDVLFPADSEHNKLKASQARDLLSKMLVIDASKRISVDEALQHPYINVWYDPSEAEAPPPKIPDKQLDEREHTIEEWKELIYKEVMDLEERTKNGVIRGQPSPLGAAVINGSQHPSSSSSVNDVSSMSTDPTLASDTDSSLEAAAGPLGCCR
UniProt Q96GX5: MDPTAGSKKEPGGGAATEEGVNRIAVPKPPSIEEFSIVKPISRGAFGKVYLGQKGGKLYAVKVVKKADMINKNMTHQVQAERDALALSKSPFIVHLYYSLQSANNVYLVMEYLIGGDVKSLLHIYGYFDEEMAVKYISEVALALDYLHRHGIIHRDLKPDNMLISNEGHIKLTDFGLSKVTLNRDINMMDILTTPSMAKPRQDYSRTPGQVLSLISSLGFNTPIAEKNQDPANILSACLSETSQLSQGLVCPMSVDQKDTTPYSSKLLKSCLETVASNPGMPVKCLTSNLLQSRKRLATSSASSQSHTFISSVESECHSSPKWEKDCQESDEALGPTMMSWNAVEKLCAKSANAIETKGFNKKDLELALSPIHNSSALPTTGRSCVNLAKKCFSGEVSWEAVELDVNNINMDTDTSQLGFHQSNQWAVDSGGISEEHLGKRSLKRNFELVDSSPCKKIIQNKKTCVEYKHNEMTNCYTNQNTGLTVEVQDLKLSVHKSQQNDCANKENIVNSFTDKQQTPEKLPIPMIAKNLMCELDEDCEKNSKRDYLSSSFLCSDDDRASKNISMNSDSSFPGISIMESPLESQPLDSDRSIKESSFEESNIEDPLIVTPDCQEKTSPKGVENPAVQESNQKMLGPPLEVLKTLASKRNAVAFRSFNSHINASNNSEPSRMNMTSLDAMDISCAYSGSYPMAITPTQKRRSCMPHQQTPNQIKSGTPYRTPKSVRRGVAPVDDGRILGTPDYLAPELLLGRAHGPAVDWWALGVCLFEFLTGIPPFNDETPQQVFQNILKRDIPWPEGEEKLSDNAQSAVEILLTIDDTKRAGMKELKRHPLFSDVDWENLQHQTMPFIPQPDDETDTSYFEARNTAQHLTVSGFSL
UniProt Q96A72, whole entry, looked up: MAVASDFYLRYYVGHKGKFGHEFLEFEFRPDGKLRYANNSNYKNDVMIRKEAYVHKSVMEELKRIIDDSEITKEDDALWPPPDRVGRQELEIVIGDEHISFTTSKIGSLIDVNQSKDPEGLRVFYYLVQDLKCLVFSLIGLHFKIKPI
UniProt O60476: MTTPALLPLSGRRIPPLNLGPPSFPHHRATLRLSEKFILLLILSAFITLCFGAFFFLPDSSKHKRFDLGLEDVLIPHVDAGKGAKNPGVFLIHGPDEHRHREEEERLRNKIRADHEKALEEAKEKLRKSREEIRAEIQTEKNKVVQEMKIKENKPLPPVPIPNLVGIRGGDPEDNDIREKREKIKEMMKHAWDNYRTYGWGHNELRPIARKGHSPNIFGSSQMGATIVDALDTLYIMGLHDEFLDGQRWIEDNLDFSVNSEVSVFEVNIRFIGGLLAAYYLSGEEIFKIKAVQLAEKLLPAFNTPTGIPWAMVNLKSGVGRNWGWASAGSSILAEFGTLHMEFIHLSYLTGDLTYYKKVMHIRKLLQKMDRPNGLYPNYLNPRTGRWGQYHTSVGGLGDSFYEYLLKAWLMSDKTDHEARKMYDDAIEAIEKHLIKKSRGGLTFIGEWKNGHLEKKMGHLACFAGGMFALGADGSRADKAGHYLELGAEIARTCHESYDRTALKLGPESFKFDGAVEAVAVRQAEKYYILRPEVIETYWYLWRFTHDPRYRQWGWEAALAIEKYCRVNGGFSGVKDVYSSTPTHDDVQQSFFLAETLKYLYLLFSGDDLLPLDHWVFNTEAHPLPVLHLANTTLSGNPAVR

Key:
Test in all cases: log2 fold change, soluble protein after heating vs DMSO (PISA); higher = thermal stabilisation; K562 lysate, 10 uM; active = over 0.2 and 3.5 SD of the protein, either way, in both replicates (recomputed)
lapatinib = compound: CS(=O)(=O)CCNCc1ccc(-c2ccc3ncnc(Nc4ccc(OCc5cccc(F)c5)c(Cl)c4)c3c2)o1 [lapatinib]
Method in brief: (§1)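 Values give the log-two fold change in thermal stability against solvent controls, from duplicates. Crude K562 extract at 1 mg/mL protein, made by dounce homogenisation in PBS pH 7.4 with 1 mM MgCl2, was treated with 10 μM compound for 30 min. After 3 min heating across 48°C-58°C, aliquots were pooled, adjusted to 0.5% NP-40 at 4°C and centrifuged at 21,000xg for 90 min. The supernatant was measured by TMTpro 16plex LC-MS/MS with channel sums equalised.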

pictilisib = compound: CS(=O)(=O)N1CCN(Cc2cc3nc(-c4cccc5[nH]ncc45)nc(N4CCOCC4)c3s2)CC1 [pictilisib]
Method in brief: as §1

crizotinib = compound: C[C@@H](Oc1cc(-c2cnn(C3CCNCC3)c2)cnc1N)c1c(Cl)ccc(F)c1Cl [crizotinib]
Method in brief: as §1

[1] = compound: C[C@H](C1=CC=C(C=C1)C(=O)NC2=C3C=CNC3=NC=C2)N
Method in brief: as §1

duvelisib = compound: C[C@H](Nc1ncnc2nc[nH]c12)c1cc2cccc(Cl)c2c(=O)n1-c1ccccc1 [duvelisib]
Method in brief: as §1

gandotinib = compound: Cc1cc(Nc2cc(CN3CCOCC3)c3nc(C)c(Cc4ccc(Cl)cc4F)n3n2)n[nH]1 [gandotinib]
Method in brief: as §1

tozasertib = compound: Cc1cc(Nc2cc(N3CCN(C)CC3)nc(Sc3ccc(NC(=O)C4CC4)cc3)n2)n[nH]1 [tozasertib]
Method in brief: as §1

doramapimod = compound: Cc1ccc(-n2nc(C(C)(C)C)cc2NC(=O)Nc2ccc(OCCN3CCOCC3)c3ccccc23)cc1 [doramapimod]
Method in brief: as §1

bafetinib = compound: Cc1ccc(NC(=O)c2ccc(CN3CC[C@H](N(C)C)C3)c(C(F)(F)F)c2)cc1Nc1nccc(-c2cncnc2)n1 [bafetinib]
Method in brief: as §1

[2] = compound: Cc1cccc(CC(=O)N2CCc3c2ccc(-c2cn(C)c4ncnc(N)c24)c3F)n1
Method in brief: as §1

nilotinib = compound: Cc1cn(-c2cc(NC(=O)c3ccc(C)c(Nc4nccc(-c5cccnc5)n4)c3)cc(C(F)(F)F)c2)cn1 [nilotinib]
Method in brief: as §1

[3] = compound: Cc1nc(Nc2n[nH]c3c2CN(C(=O)N[C@H](CN(C)C)c2ccccc2)C3(C)C)c2sccc2n1
Method in brief: as §1

dasatinib = compound: Cc1nc(Nc2ncc(C(=O)Nc3c(C)cccc3Cl)s2)cc(N2CCN(CCO)CC2)n1 [dasatinib]
Method in brief: as §1

[4] = compound: Cc1ncc(-c2ccnc(Nc3ccc(S(C)(=O)=O)cc3)n2)n1C(C)C
Method in brief: as §1

[5] = compound: Cn1cc(-c2ccc3c(c2)CCN3C(=O)Cc2cccc(C(F)(F)F)c2)c2c(N)ncnc21
Method in brief: as §1

quisinostat = compound: Cn1cc(CNCC2CCN(c3ncc(C(=O)NO)cn3)CC2)c2ccccc21 [quisinostat]
Method in brief: as §1

tipifarnib = compound: Cn1cncc1[C@@](N)(c1ccc(Cl)cc1)c1ccc2c(c1)c(-c1cccc(Cl)c1)cc(=O)n2C [tipifarnib]
Method in brief: as §1

[6] = compound: NC(=O)Nc1cc(-c2cccc(F)c2)sc1C(=O)N[C@H]1CCCNC1
Method in brief: as §1

[7] = compound: NC(=O)c1cnc(N[C@@H]2CCCC[C@@H]2N)nc1Nc1cccc(-n2nccn2)c1
Method in brief: as §1

[8] = compound: NC1(c2ccc(-c3nc4ccn5c(=O)[nH]nc5c4cc3-c3ccccc3)cc2)CCC1
Method in brief: as §1

| Target | log2 fold change (lapatinib) | log2 fold change (pictilisib) | log2 fold change (crizotinib) | log2 fold change [1] | log2 fold change (duvelisib) | log2 fold change (gandotinib) | log2 fold change (tozasertib) | log2 fold change (doramapimod) | log2 fold change (bafetinib) | log2 fold change [2] | log2 fold change (nilotinib) | log2 fold change [3] | log2 fold change (dasatinib) | log2 fold change [4] | log2 fold change [5] | log2 fold change (quisinostat) | log2 fold change (tipifarnib) | log2 fold change [6] | log2 fold change [7] | log2 fold change [8] |
| --- | --- | --- | --- | --- | --- | --- | --- | --- | --- | --- | --- | --- | --- | --- | --- | --- | --- | --- | --- | --- |
| MACF1 isoform 3 (UniProt Q9UPN3) | inactive: 0.019 | inactive: -0.017 | inactive: -0.004 | inactive: -0.042 | inactive: -0.004 | inactive: -0.009 | inactive: 0.005 | inactive: 0.008 | inactive: -0.025 | inactive: 0.045 | inactive: -0.009 | inactive: 0.006 | inactive: -0.003 | inactive: -0.002 | inactive: -0.002 | inactive: -0.01 | inactive: 0.012 | inactive: 0.02 | inactive: -0.002 | inactive: -0.003 |
| MAD2L2 (UniProt Q9UI95) | inactive: -0.003 | inactive: 0.058 | inactive: -0.142 | inactive: -0.008 | inactive: -0.001 | inactive: -0.127 | inactive: 0.042 | inactive: 0.022 | inactive: -0.11 | inactive: 0.073 | inactive: 0.031 | inactive: -0.029 | inactive: -0.064 | inactive: 0.006 | inactive: -0.035 | inactive: -0.231 | inactive: -0.015 | inactive: 0.064 | inactive: 0.117 | inactive: -0.065 |
| MAT2B (UniProt Q9NZL9) | inactive: 0.008 | inactive: -0.028 | inactive: 0.007 | inactive: 0.063 | inactive: -0.031 | inactive: -0.02 | inactive: 0.019 | inactive: -0.023 | inactive: -0.007 | inactive: 0.005 | inactive: 0.002 | inactive: -0.014 | inactive: -0.023 | inactive: -0.024 | inactive: -0.007 | inactive: 0.021 | inactive: 0.02 | inactive: -0.005 | inactive: 0.04 | inactive: 0.009 |
| MARK1 (UniProt Q9P0L2) | inactive: 0.037 | inactive: -0.065 | inactive: -0.175 | inactive: 0.026 | inactive: -0.002 | inactive: -0.192 | inactive: -0.084 | inactive: 0.155 | inactive: -0.034 | inactive: 0.05 | inactive: 0.035 | inactive: -0.113 | inactive: -0.123 | inactive: -0.019 | inactive: 0.003 | inactive: 0.092 | inactive: 0.023 | inactive: -0.083 | inactive: -0.03 | inactive: -0.072 |
| LTF (UniProt P02788) | inactive: 0.112 | inactive: 0.173 | inactive: 0.56 | inactive: 0.143 | inactive: 0.259 | inactive: -0.151 | inactive: 0.288 | inactive: -0.248 | inactive: 0.073 | inactive: 0.5 | inactive: -0.045 | inactive: 0.001 | inactive: -0.012 | inactive: -0.121 | inactive: 0.278 | inactive: 0.166 | inactive: -0.126 | inactive: -0.015 | inactive: -0.054 | inactive: 0.048 |
| MAP3K20 isoform 2 (UniProt Q9NYL2) | inactive: -0.121 | inactive: -0.102 | inactive: -0.013 | inactive: -0.206 | inactive: -0.003 | inactive: 0.028 | inactive: -0.155 | inactive: 0.122 | inactive: 0.187 | inactive: 0.222 | inactive: 0.147 | inactive: -0.047 | inactive: -0.034 | inactive: -0.041 | inactive: 0.118 | inactive: 0.003 | inactive: -0.13 | inactive: -0.008 | inactive: -0.006 | inactive: -0.102 |
| MAFG (UniProt O15525) | inactive: 0.031 | inactive: 0.025 | inactive: 0.039 | inactive: 0.028 | inactive: 0 | inactive: 0.045 | inactive: 0.129 | inactive: 0.005 | inactive: -0.194 | inactive: 0.044 | inactive: -0.116 | inactive: -0.01 | inactive: -0.099 | inactive: 0.114 | inactive: -0.057 | inactive: 0 | inactive: -0.156 | inactive: 0.016 | inactive: 0.016 | inactive: 0.03 |
| MACF1 (UniProt H3BQK9) | inactive: -0.035 | inactive: -0.033 | inactive: -0.047 | inactive: 0.012 | inactive: 0.006 | inactive: -0.074 | inactive: 0.015 | inactive: -0.016 | inactive: -0.042 | inactive: 0.019 | inactive: 0.006 | inactive: 0.026 | inactive: -0.025 | inactive: 0.015 | inactive: 0.057 | inactive: -0.078 | inactive: -0.018 | inactive: 0.015 | inactive: 0.04 | inactive: -0.027 |
| MAN2A2 (UniProt P49641) | inactive: -0.032 | inactive: -0.026 | inactive: 0.018 | inactive: 0.001 | inactive: -0.014 | inactive: 0.039 | inactive: 0.053 | inactive: 0.059 | inactive: -0.17 | inactive: 0.036 | inactive: -0.005 | inactive: -0.031 | inactive: 0.018 | inactive: -0.035 | inactive: 0.029 | inactive: -0.051 | inactive: -0.038 | inactive: 0.054 | inactive: 0.074 | inactive: -0.029 |
| MAP3K7 (UniProt O43318) | inactive: -0.006 | inactive: -0.016 | inactive: -0.007 | inactive: 0.001 | inactive: -0.003 | inactive: 0.013 | inactive: -0.028 | inactive: 0.146 | inactive: 0.025 | inactive: -0.043 | inactive: -0.012 | inactive: 0.033 | inactive: -0.011 | inactive: 0.092 | inactive: -0.02 | inactive: -0.119 | inactive: -0.007 | inactive: 0.057 | inactive: -0.022 | inactive: -0.033 |
| MAPK8 isoform 3 (UniProt P45983) | inactive: -0.042 | inactive: 0.192 | inactive: -0.089 | inactive: -0.022 | inactive: -0.07 | inactive: 0.281 | inactive: -0.007 | inactive: -0.049 | inactive: -0.014 | inactive: -0.037 | inactive: 0.051 | inactive: -0.007 | inactive: 0.054 | active: 0.326 | inactive: 0.07 | inactive: -0.139 | inactive: 0.006 | inactive: 0.093 | inactive: 0.115 | inactive: -0.062 |
| MASTL (UniProt Q96GX5) | inactive: -0.041 | inactive: -0.015 | inactive: 0.077 | inactive: -0.14 | inactive: 0.01 | inactive: 0.078 | inactive: 0.03 | inactive: 0.02 | inactive: -0.057 | inactive: 0.055 | inactive: -0.029 | inactive: 0.036 | inactive: -0.012 | inactive: 0.027 | inactive: 0.046 | inactive: -0.047 | inactive: -0.071 | inactive: 0.061 | inactive: -0.055 | inactive: 0.032 |
| MAGOHB (UniProt Q96A72) | inactive: -0.006 | inactive: 0.009 | inactive: 0.019 | inactive: -0.177 | inactive: -0.015 | inactive: 0.027 | inactive: 0 | inactive: -0.015 | inactive: -0.01 | inactive: 0.065 | inactive: 0.021 | inactive: -0.023 | inactive: -0.04 | inactive: -0.02 | inactive: -0.002 | inactive: 0.063 | inactive: -0.007 | inactive: 0.035 | inactive: -0.012 | inactive: -0.031 |
| MAN1A2 (UniProt O60476) | inactive: 0.038 | inactive: -0.038 | inactive: -0.019 | inactive: 0.088 | inactive: -0.047 | inactive: -0.142 | inactive: -0.005 | inactive: -0.032 | inactive: -0.007 | inactive: -0.09 | inactive: 0.001 | inactive: 0.005 | inactive: -0.007 | inactive: -0.008 | inactive: 0.002 | inactive: 0.066 | inactive: 0.012 | inactive: 0 | inactive: -0.018 | inactive: -0.01 |
| MAP2K1 (UniProt Q02750) | inactive: -0.065 | inactive: -0.009 | inactive: 0.001 | inactive: 0.204 | inactive: -0.021 | inactive: -0.042 | inactive: 0.152 | inactive: -0.002 | inactive: -0.027 | inactive: -0.047 | inactive: -0.02 | inactive: 0.107 | active: 0.296 | inactive: 0.057 | inactive: -0.057 | inactive: -0.064 | inactive: -0.037 | active: 0.4 | inactive: 0.033 | inactive: -0.02 |
| LYAR (UniProt Q9NX58) | inactive: 0 | inactive: 0.025 | inactive: 0.005 | active: 0.269 | inactive: 0.017 | inactive: -0.119 | inactive: -0.025 | inactive: -0.017 | inactive: -0.008 | inactive: -0.099 | inactive: 0.01 | inactive: -0.021 | inactive: 0.002 | inactive: 0.005 | inactive: 0.014 | inactive: 0.003 | inactive: 0 | inactive: -0.002 | inactive: -0.016 | inactive: -0.012 |

Retrieved one by one from above, 2 records:

| Target | log2 fold change (lapatinib) | log2 fold change (pictilisib) | log2 fold change (crizotinib) | log2 fold change [1] | log2 fold change (duvelisib) | log2 fold change (gandotinib) | log2 fold change (tozasertib) | log2 fold change (doramapimod) | log2 fold change (bafetinib) | log2 fold change [2] | log2 fold change (nilotinib) | log2 fold change [3] | log2 fold change (dasatinib) | log2 fold change [4] | log2 fold change [5] | log2 fold change (quisinostat) | log2 fold change (tipifarnib) | log2 fold change [6] | log2 fold change [7] | log2 fold change [8] |
| --- | --- | --- | --- | --- | --- | --- | --- | --- | --- | --- | --- | --- | --- | --- | --- | --- | --- | --- | --- | --- |
| MARK1 (UniProt Q9P0L2) | inactive: 0.037 | inactive: -0.065 | inactive: -0.175 | inactive: 0.026 | inactive: -0.002 | inactive: -0.192 | inactive: -0.084 | inactive: 0.155 | inactive: -0.034 | inactive: 0.05 | inactive: 0.035 | inactive: -0.113 | inactive: -0.123 | inactive: -0.019 | inactive: 0.003 | inactive: 0.092 | inactive: 0.023 | inactive: -0.083 | inactive: -0.03 | inactive: -0.072 |
| LTF (UniProt P02788) | inactive: 0.112 | inactive: 0.173 | inactive: 0.56 | inactive: 0.143 | inactive: 0.259 | inactive: -0.151 | inactive: 0.288 | inactive: -0.248 | inactive: 0.073 | inactive: 0.5 | inactive: -0.045 | inactive: 0.001 | inactive: -0.012 | inactive: -0.121 | inactive: 0.278 | inactive: 0.166 | inactive: -0.126 | inactive: -0.015 | inactive: -0.054 | inactive: 0.048 |
